# Source: PubChem BioAssay AID493014 (National Center for Advancing Translational Sciences (NCATS), 2011)
# The campaign covered roughly 340,000 compounds. About 170 (0.05%) were called active. The shares of active, inactive and inconclusive entries below differ from those in the screen. The call rests on the fitted dose curve; in most records, active means well fitted inhibition curve with a large enough effect in the signal ratio, with a control signal flat (not every such curve was filed as active); inconclusive means small, poorly fitted or top-dose-only effect, or effect the other way, or a change in a side signal; inactive means flat fitted curve, though single readings scatter; the % refers to the signal ratio. A potency beside an inconclusive call is a rough fit, not a confirmed value.
# Assay: qHTS Assay to Find Inhibitors of Chronic Active B-Cell Receptor Signaling;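 on activity change, negative = inhibition: plate controls were basal doxycycline-induced cells for no effect and cells given 10 µM MG132 for full effect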
# Conditions: ABC-DLBCL IkBa-CBG/CBR reporter, luminescence ratio (green luciferase fused to IkBa over red control in TMD8 lymphoma cells), 4 h; activity change, negative = inhibition: at 46.1 µM (top of the series) unless noted
# Outline: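 Concentration-response series (up to 46 uM) were applied to TMD8 dual-reporter cells for 4 h at 37C with doxycycline. Green/red ratio, after filter-overlap correction, defined %Activity; red signal alone was normalised to basal cells and zero luminescence.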
# Potency means the concentration at half of the fitted maximal effect.
SMILES,"activity change, negative = inhibition",Potency
Cc1ccc(S(=O)(=O)Nc2ccc3c(c2)nc(CCN2CCOCC2)n3C)cc1,inconclusive: -12%,–
c1ccc(-c2nc(-c3ccccn3)no2)cc1,–,"inconclusive: 4.61 µM [falling, partial curve]"
O=C(NCc1ccco1)Nc1ccc(OC(F)(F)F)cc1,–,"inconclusive: 35.5 µM [falling, single point]"
CC(=O)NC(CC(=O)NC1CCCCC1)c1ccccc1 (configuration not stated),inconclusive: -3.37%,–
CCCCOc1ccc(CSC2=NCCN2)cc1[N+](=O)[O-],–,"inconclusive: 18.4 µM [falling, single point]"
COc1ccc(Nc2nc(-c3ccccc3F)nc3ccccc23)cc1OC,inconclusive: -19%,"inconclusive: 14.1 µM [falling, partial curve]"
COc1ccc2c(c1)CCc1c(C(=O)NCc3ccco3)noc1-2,–,"inconclusive: 18.4 µM [falling, partial curve, poor fit]"
Cc1ccc(OC(=O)c2cc3ccccc3o2)cc1,inconclusive: 7.19%,–
O=C1CSC(=S)N1N1C(=O)c2cccc([N+](=O)[O-])c2C1=O,inconclusive: 9.02%,–
CCC(=O)n1nc(-c2ccc(Cl)cc2)nc1NCc1ccccc1,–,"inconclusive: 0.326 µM [rising, full curve, poor fit]"
O=C(N/N=C/c1ccccc1)c1ccc(CN2C(=O)c3cccc4cccc2c34)cc1,inactive,–
Cc1ccc(S(=O)(=O)C2(C(=O)Nc3cccnc3)CC2)cc1,inactive,–
O=C(Cc1ccc(Cl)cc1)Nc1ccc(-c2nnc(-c3ccco3)o2)cc1,inconclusive: 1.28%,–
Clc1ccc(-n2nnnc2-c2cnc(-c3ccncc3)nc2-c2cccs2)cc1,–,"inconclusive: 0.0259 µM [falling, full curve, poor fit]"
Cc1ccccc1Nc1nnc(SCC2CCCCO2)s1 (configuration not stated),–,"inconclusive: 25.9 µM [falling, single point]"
O=C(COC(=O)CN1C(=O)C(=O)c2ccccc21)OCN1C(=O)c2ccccc2C1=O,inconclusive: 4.01%,–
COC(=O)c1cc(CNC(=O)c2ccc(S(=O)(=O)N(C)c3ccccc3)cc2)ccc1OC,inactive,–
O=C(CCNC(=O)c1ccccc1Cl)Nc1ccc(Cl)c(C(F)(F)F)c1,inactive,–
O=C1c2cccc(O)c2C(=O)c2c(O)cccc21,inactive,–
CN1CCN(C(=O)c2ccc3c(=O)n(-c4ccc(F)cc4)c(=S)[nH]c3c2)CC1,–,"inconclusive: 35.5 µM [rising, single point]"
CCOc1ccccc1N1CCN(C(=O)c2ccc3[nH]c4c(c3c2)CCCC4)CC1,–,"inconclusive: 13 µM [rising, partial curve, poor fit]"
O=C(CSc1nnc(-c2ccccc2)c(-c2ccccc2)n1)NCc1ccco1,inconclusive: 14.4%,–
CCOc1cc(N2CCOCC2)c(OCC)cc1NC(=O)CN1CCCC(C)C1 (configuration not stated),inconclusive: -2.77%,–
CCc1ccc(NC(=O)c2ccc(F)c(S(=O)(=O)N3CCN(c4cc(C)ccc4C)CC3)c2)cc1,inactive,–
CSc1ccc(/C=C/C(=O)Nc2ccccc2)cc1,inconclusive: 209%,–
CCOC(=O)c1ccc(N/C=C/C(=O)c2ccc(OC)cc2)cc1,inconclusive: 337%,–

SMILES,"activity change, negative = inhibition",Potency
N#Cc1cnc(NOCc2ccc(Cl)cc2)nc1,inconclusive: 9.4%,–
COCCNC(=O)C(c1ccc(C)o1)N(C(=O)c1snc(C(N)=O)c1N)c1cccc(C)c1 (configuration not stated),inconclusive: 7.63%,–
COc1ccc(/C=C/C(=O)OCC(=O)Nc2ccc(Cl)c(S(=O)(=O)N(C)C)c2)cc1OC,inconclusive: -18.9%,–
COc1ccc(OC)c(NC(=O)c2cnn(-c3ccccc3Cl)c2NC(=O)c2ccco2)c1,–,"inconclusive: 7.31 µM [falling, partial curve, poor fit]"
O=c1cc(O)c2sc3nc(-c4ccccc4)cc(C(F)(F)F)c3c2[nH]1,inconclusive: -0.617%,–
OC(CN1CCN(c2ccc(F)cc2)CC1)c1ccc(Cl)cc1 (configuration not stated),inconclusive: -1.8%,–
Cc1ccc(-c2cc(C(=O)Nc3cccnc3)c3ccccc3n2)o1,inactive,–
Cc1cc(C(=O)N/N=C/c2ccncc2)c(C)o1,–,"inconclusive: 12.6 µM [falling, partial curve]"
Cc1ccc(CNC(=O)c2ccc(Cn3cc(-c4ccc(C)cc4)nc3-c3ccncc3)cc2)cc1,inconclusive: 8.52%,–
CCc1ccc(NS(=O)(=O)c2cc3[nH]c(=O)c(=O)[nH]c3cc2C)cc1,inactive,–
COc1ccc(C(=O)Nc2ccc(-c3cn4ccsc4n3)cc2)cc1S(=O)(=O)N1CCOCC1,inconclusive: 10.9%,–
COC(=O)c1ccc(NC(=S)NCCc2ccccc2C)cc1,–,"inconclusive: 1.84 µM [falling, full curve]"
Cc1cccn2c(=O)c(C(=O)NC3CC(C)CC(C)(C)C3)c(O)nc12 (configuration not stated),inconclusive: 6.71%,–
O=C(Nc1ccon1)Nc1cc(Cl)ccc1Cl,inconclusive: -3.12%,–
Cc1ccc2nc(-c3ccccc3)oc(=O)c2c1,inconclusive: 432%,–
COc1ccc(C(=O)COC(=O)C(CCSC)NC(=O)COc2ccccc2)c(OC)c1 (configuration not stated),inactive,–
Cc1ccc2cc(C#N)c(N3CCCN(C(=O)c4cnccn4)CC3)nc2c1,inconclusive: -1.34%,–
O=C(NC(=S)Nc1ccccc1N1CCCCC1)c1ccc(-c2cccc([N+](=O)[O-])c2)o1,inactive,–
OC1CCN(c2c3c(nc4cc(-c5ccc(Cl)cc5)nn24)CCC3)CC1,inconclusive: -2.41%,–
COC(=O)c1cccc(S(=O)(=O)N2CCCCC2)c1,inactive,–
O=C(/C=C/c1ccco1)OCC(=O)N1CCCCC1,inactive,–
N#CCCn1c(SCC(=O)c2c[nH]c3ccccc23)nc2ccccc21,–,"inconclusive: 14.1 µM [falling, partial curve]"
C/C(CC(C)C)=N\Nc1ccc(S(N)(=O)=O)cc1[N+](=O)[O-],inactive,–
O=C(NCc1ccccc1)c1ccc(CS(=O)(=O)c2ccccc2)o1,–,"inconclusive: 2.59 µM [rising, single point]"
CCOc1ccc(/C=N/n2c(C3CCCCC3)n[nH]c2=S)cc1,inconclusive: -0.994%,–

# Molecules from the list above containing an aryl thioether with sulfur outside any ring:
SMILES,"activity change, negative = inhibition",Potency
Cc1ccccc1Nc1nnc(SCC2CCCCO2)s1 (configuration not stated),–,"inconclusive: 25.9 µM [falling, single point]"
O=C(CSc1nnc(-c2ccccc2)c(-c2ccccc2)n1)NCc1ccco1,inconclusive: 14.4%,–
CSc1ccc(/C=C/C(=O)Nc2ccccc2)cc1,inconclusive: 209%,–
N#CCCn1c(SCC(=O)c2c[nH]c3ccccc23)nc2ccccc21,–,"inconclusive: 14.1 µM [falling, partial curve]"
